Experimental data taken from PMC2931690.
Results are given in words; binding and its absence hold for the method and conditions named. In cells and extracts the contact can be indirect. Some entries that bind do so weakly or less than the wild type.

Chains of the proteins cited; added tags and fusions are not shown.
UniProt Q3UND0: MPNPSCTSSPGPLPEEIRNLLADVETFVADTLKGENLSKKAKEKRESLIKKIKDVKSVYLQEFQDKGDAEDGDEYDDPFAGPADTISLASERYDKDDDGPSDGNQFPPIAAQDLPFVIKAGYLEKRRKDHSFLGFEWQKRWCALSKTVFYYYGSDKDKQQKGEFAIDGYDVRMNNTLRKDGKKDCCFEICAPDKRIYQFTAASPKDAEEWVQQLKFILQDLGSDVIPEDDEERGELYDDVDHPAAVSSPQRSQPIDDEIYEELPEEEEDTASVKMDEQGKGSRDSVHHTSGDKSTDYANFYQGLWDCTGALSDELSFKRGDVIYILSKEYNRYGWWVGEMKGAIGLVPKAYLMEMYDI

Molecular target: SKAP55 homologue (SKAP-HOM) (mouse (endogenous in Wehi 231)) (UniProt Q3UND0)
Test: co-IP; SKAP-HOM immunoprecipitated from lysates of unstimulated Wehi 231 co/kd cells (1% Triton X-100, 10 mM Tris pH 7.5, 150 mM NaCl, 5 mM EDTA, 10 mM NaF), 3 h at 4°C; Western blots for SKAP-HOM, HPK1 and RIAM

B1: Rap1-GTP-interacting adaptor molecule (RIAM) (protein, UniProt Q8R5A3 1-670)
chain: MGESNEDIDQMFSTLLGEMDLLTQSLGVDTLPPPDPNPPREEFNYTVGFKDLNESLNALEDQDLDALMADLVADISEAEQRTIQAQKESSQNQDRFALLRASDGQGTASGGYGASAAAIDVSHHEEALPPPPVEPMLDLLPPPPPPPPPELLSKEEEEAKAKADKIKLALEKLKEAKVKKLVVKVHMDDSSTKSLMVDERQLARDVLDNLFEKTHCDCNVDWCLYEIYPELQIERVFEDHENVVEVLSDWTRDTENKVLFLEKEERYAVFKNPQNFYLDNKGKKENKETNEKMNAKNKEYLLEESFCGTSIIVPELEGALYLKEDGKKSWKRRYFLLRASGIYYVPKGKTKTSRDLACFIQFENVNIYYGIQCKMKYKAPTDHCFVLKHPQIQKESQYIKYLCCDDARTLSQWVMGIRIAKYGKTLYDNYQRAVARAGLASRWTNLGTVGTPMPAQPSTVSSGLKTGTSQPNGQMPQAIPSAGPPLQEAQTQIETTKDEKQGLGNHSPGATRENHRPKSSLPPPPPPVRRSSDTCGSPALPSKVKGPGTCTFPHPPENFLPPPPPPPPEEDNSGLLPPPPPPPYLEEPPDFVPPPPPPAAVEDSALPPPPPPPPCLSQEITKSSPLPPKKPLVPPKRQENQGLPGAPGNSEQDFMSDLMKALQKKRGNIP
With B1 the binding was “binds”.
